Results are given in words; binding and its absence hold for the method and conditions named. Some results given as binding are weak or reduced against the parent protein; the word gives no strength.
B1: GMBC603 (scFv)
scFv: QVQLVQSGGGVVRPGGSLRLSCAASGFTFDDYGMSWVRQAPGKGLEWVSGINWNGGSTGYADSVKGRFTISRDNAKNSLYLQMNSLRAEDTALYYCAKDLNYDFWSGSGMDVWGRGTLVTVSSGGGGSGGGGSGGGGSQSVLTQPASVSGSPGQSITISCTGTSSDVGGYNYVSWYQQHPGKAPKLMIYEGSKRPSGVSNRFSGSKSGNTASLTISGLQAEDEADYYCSSYTTRSTRVFGGGTKLTVLG
B2: GMBC613 (scFv)
scFv: KVQLVESGGGLVQPGGSLRLSCAASGFTISSHWMSWVRQAPGKGLEWVASIKQDGREKHFVDSVKGRFSISRDNAKNSLYLQMNSLRTEDTAVYYCARETYGGYYYYFMDVWGKGTLVTVSSGGGGSGGGGSGGGGSSELTQDPAVSVALGQTVRITCQGDSLRSYYASWYQQKPGQAPVLVIYGKNNRPSGIPDRFSGSSSGNTASLTITGAQAEDEADYYCNSRDSSGNHVVFGGGTKLTVLG
B3: GMBC692 (scFv)
scFv: EVQLVQSGGGLVKPGGSLRLSCAASGFTFSDAWMNWVRQAPGKGLEWVGRIKSKGSGGTIDYAAPVKDRFTISRDDSKNTLYLQMNSLKTEDTALYYCTWDWDFYYGMNVWGRGTLVTVSSGGGGSGGGGSGGGGSQSVLTQPASVSGSPGQSITISCTGTSSDVGGYNYVSWYQQHPGKAPKLMIYEGSKRPSGVSNRFSGSKSGNTASLTISGLQAEDEADYYCSSYTTRSTRVFGGGTKLTVLG
B4: GMBC605 (scFv)
scFv: QVQLVQSGGGLVKPGGSLRLSCETSGFKFSDAWMNWVRQAPGKGLEWVGRIKSKGSGGTIDYAAPVKDRFTISRDDSKNTLYLQMNSLKTEDTALYYCTWDWDFYYGMNVWGRGTLVTVSSGGGGSGGGGSGGGGSQSVLTQPASVSGSPGQSITISCTGTSSDVGGYNYVSWYQQHPGKAPKLMIYEGSKRPSGVSNRFSGSKSGNTASLTISGLQAEDEADYYCSSYTTRSTRVFGGGTKLTVLG
B5: GMBC607 (scFv)
scFv: EVQLVQSGGGLVKPGGSLRLSCAASGFTFSDAWMNWVRQAPGKGLEWVGRIKSKGSGGTIDYAAPVKDRFTISRDDSKNMLYLEMNSLKTEDTALYYCTWDWDFYYGMNVWGQGTMVTVSSGGGGSGGGGSGGGGSQSVLTQPASVSGSPGQSITISCTGTSSDVGDYNYVSWYQQHPGKAPKLMIYEGSKRPSGVSNRFSGSKSGNTASLTISGLQAEDEADYYCSSYTTRSTRVFGGGTKLTVLG
B6: GMBC614 (scFv)
scFv: EVQLVQSGGGLVKPGGSLRLSCAASGFTFSDAWMNWVRQAPGKGLEWVGRIKSKGSGGTIDYAAPVKDRFTISRDDSKNTLYLQMNSLKTEDTALYYCTWDWDFYYGMNVWGRGTMVTVSSGGGGSGGGGSGGGGSQSVLTQPASVSGSPGQSITISCTGTSSDVGGYNYVSWYQQHPGKAPKLMIYEGSKRPSGVSNRFSGSKSGNTASLTISGLQAEDEADYYCSSYTTRSTRVFGGGTKLTVLG
B7: GMBC615 (scFv)
scFv: EVQLVESGGGLVKPGGSLRLSCAASGFKFSDAWMNWVRQAPGKGLEWVGRIKSKGSGGTIDYAAPVKDRFTISRDDSKNTLYLQMNSLKTEDTALYYCTWDWDFYYGMNVWGKGTLVAVSSGGGGSGGGGSGGGGSQSVLTQPASVSGSPGQSITISCTGTSSDVGGYNYVSWYQQHPGKAPKLMIYEGSKRPSGVSNRFSGSKSGNTASLTISGLQAEDEADYYCSSYTTRSTRVFGGGTKLTVLG
B8: GMBC616 (scFv)
scFv: EVQLVESGGGLVKPGGSLRLSCAASGFTFSDAWMNWVRQAPGKGLEWVGRIKSKGSGGTTDYAAPVKDRFTISRDDSENTLYLQMNSLKTEDTAVYYCTWDHSYYYDMAVWGRGTLVTVSSGGGGSGGGGSGGGGSQSVLTQPPFVSGSPGQSITISCTGTSSDVGGYNYVSWYQQHPGKAPKLMIYEGSKRPSGVSNRFSGSKSGNTASLTISGLQAEDEADYYCSSYTTRSTRVFGGGTKLTVLG
B9: GMBC620 (scFv)
scFv: EVQLVESGGGLVKPGGSLRLSCAASGFTFSDAWMNWVRQAPGKGLEWVGRIKSKGSGGTIDYAAPVKDRFTISRDDSKNTLYLQMNSLKTEDTALYYCTWDWDFYYGMNVWGRGTMVTVSSGGGGSGGGGSGGGGSQSVLTQPASVSGSPGQSITISCTGTSSDVGGYNYVSWYQQHPGKAPKLMIYEGSKRPSGVSNRFSGSKSGNTASLTISGLQAEDEADYYCSSYTTRSTRVFGGGTKLTVLG
B10: GMBC625 (scFv)
scFv: EVQLVQSGGGLVKPGGSLRLSCAASGFTFSDAWMNWVRQAPGKGLEWVGRIKSKRSGGTIDYAAPVKDRFTISRDDSKDTMYLQMNSLKTEDTALYYCTWDWDFYYGMNVWGQGTMVTVSSGGGGSGGGGSGGGGSQSVLTQPASVSGSPGQSITISCTGTSSDVGGYNYVSWYQQHPGKAPKLMIYEGSKRPSGVSNRFFGSKSGNTASLTISGLQAEDEADYYCSSYTTRSTRVFGGGTKLTVLG
B11: GMBC634 (scFv)
scFv: QVQLVQSGGGLVKPGGSLRLSCAASGFTFSDAWMNWVRQAPGKGLEWVGRIKSKGSGGTIDYAAPVKDRFTISRDDSKNTLYLQMNSLKTEDTALYYCTWDWDFYYGMNVWGQGTLVTVSSGGGGSGGGGSGGGGSQSVLTQPASVSGSPGQSITISCTGTSSDVGGYNYVSWYQQHPGKAPKLMIYEGSKRPSGVSNRFSGSKSGNTASLTISGLQAEDEADYYCSSYTTRSTRVFGGGTKLTVLG
B12: GMBC645 (scFv)
scFv: EVQLVESGGGLVKPGGSLRLSCAGSGFKFSDAWMNWVRQAPGKGLEWVGRIKSKGSGGTIEYAAPVKDRFIISRDDSKDTLYLQMNSLKTEDTALYYCTWDWDFYYGMNVWGRGTLVTVSSGGGGSGGGGSGGGGSQSVLTQPASVSGSPGQSITISCTGTSSDVGGYNYVSWYQQHPGKAPKLMIYEGSKRPSGVSNRFSGSKSGNTASLTISGLQAEDEADYYCSSYTTRSTRVFGGGTELTVLG
B13: GMBC647 (scFv)
scFv: EVQLVESGGGLVKPGGSLRLSCAASGFTFSDAWMNWVRQAPGKGLEWVGRIKSKGSGGTIDYAAPVKDRFTISRDDSKNTLYLQMNSLKTEDTALYYCTWDWDFYYGMNVWGQGTTVTVSSGGGGSGGGGSGGGGSQSVLTQPASVSGSPGQSITISCTGTSSDVGGYNYVSWYQQHPGKAPKLMIYEGSKRPSGVSNRFSGSKSGNTASLTISGLQAEDEADYYCSSYTTRSTRVFGGGTKLTVLG
B14: GMBC649 (scFv)
scFv: QVQLVQSGGGLVKPGGSLRLSCAASGFTFSDAWMNWVRQAPGKGLEWVGRIKSKGSGGTIDYAAPVKDRFTISRDDSKNTLYLQMNSLKTEDTALYYCTWDWDFYYGMNVWGRGTLVTVSSGGGGSGGGGSGGGGSQSVLTQPASVSGSPGQSITISCTGTSSDVGGYNYVSWYQQHPGKAPKLMIYEGSKRPSGVSNRFSGSKSGNTASLTISGLQAEDEADYYCSSYTTRSTRVFGGGTKLTVLG

Amino acid sequences for entries named in this document (tags omitted). A change or cut given only in a name is not applied to a line headed by its entry.
UniProt Q9HD89: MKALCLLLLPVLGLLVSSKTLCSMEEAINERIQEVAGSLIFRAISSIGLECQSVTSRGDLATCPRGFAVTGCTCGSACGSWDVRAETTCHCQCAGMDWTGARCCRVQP

Experiments:
[1] = target: Flag-tagged recombinant human GMAD (human) (UniProt Q9HD89); assay: phage ELISA
[2] = target: Flag-tagged recombinant human GMAD (human) (UniProt Q9HD89); assay: phage display selection of scFvs

| Binder | binding [1] | binding [2] |
| --- | --- | --- |
| B1 | binds | binds |
| B2 | binds | binds |
| B3 | binds | binds |
| B4 | binds | binds |
| B5 | binds | binds |
| B6 | binds | binds |
| B7 | binds | binds |
| B8 | binds | binds |
| B9 | binds | binds |
| B10 | binds | binds |
| B11 | binds | binds |
| B12 | binds | binds |
| B13 | binds | binds |
| B14 | binds | binds |
